# Measured values from the supplement of paper PMC9254222.
# Whole data set: some 1,100 compounds, median “Wnt reporter firefly/Renilla luciferase ratio relative to plate median” near 1.1, cut for the highest 2% near 1.6. The entries are a selection whose mix differs from that of the whole data set.
# Test system: HEK293T (UBE3A T485A transfected, BAR Wnt reporter)
# Assay: Wnt reporter firefly/Renilla luciferase ratio relative to plate median (fold (linear ratio)); higher = more Wnt/beta-catenin reporter activation
# Details: 24 h
# In short: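 HEK293T cells carrying a transfected BAR firefly luciferase Wnt reporter, TK-Renilla and an expression plasmid were exposed to chemicals at 0.01–100 uM for 24 h, with dosing four hours after transfection. Readout used Dual-Glo luciferase. The firefly/Renilla ratio defined Wnt activity and raw Renilla defined cell health, each median-centred per plate. Figures are means of four biological replicates.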
SMILES,Wnt reporter firefly/Renilla luciferase ratio (concentration: 0.1 uM),Wnt reporter firefly/Renilla luciferase ratio (concentration: 1 uM),Wnt reporter firefly/Renilla luciferase ratio (concentration: 10 uM),Wnt reporter firefly/Renilla luciferase ratio (concentration: 100 uM)
CC[C@H](c1ccc(O)cc1)[C@@H](CC)c1ccc(O)cc1 [meso-Hexestrol],0.858,1.05,0.711,0.0535
Cc1ncc(CO)c(CO)c1O [Pyridoxine],0.962,0.966,1.34,0.979
Cl.Nc1ccn([C@@H]2O[C@H](CO)[C@@H](O)[C@@H]2O)c(=O)n1 [Cytarabine hydrochloride],1.1,0.941,0.171,0.125
CCCCCOC(C)=O [Pentyl acetate],–,–,–,1.61
Cl.Cn1c(=O)cc(Oc2ccc(F)cc2F)c2cnc(NCC(C)(C)O)nc21,0.965,0.743,0.663,0.361
CCN(CC)CCNc1ccc(CNC=O)c2sc3ccc(OC)cc3c(=O)c12,1.79,0.887,0.373,–
CC(=O)OC/C=C(\C)CCC=C(C)C [Geranyl acetate],1.1,0.97,1.27,1.23
COCC(C)O (stereo unspecified) [1-Methoxy-2-propanol],0.916,1.03,0.962,1.13
COc1ccc(C(=O)Nc2nc3ccccc3c(NCc3ccccc3)c2C#N)cc1,1.27,1.14,0.744,0.357
CNC(C)=O [N-Methylacetamide],1.35,0.972,1.2,1.18
